Reference: PubChem BioAssay AID1347075 (National Center for Advancing Translational Sciences (NCATS), 2019)
The whole screen tested about 400,000 compounds, of which about 5,500 (1.4%) were called active. The inconclusive results got no clear call from the source; some entries with a clear call stand among them for comparison. Calls follow the shape of the dose curve; as a rule, active = well fitted cell-killing curve with a large enough effect; inconclusive = small, poorly fitted or top-dose-only effect, or effect the other way; inactive = flat fitted curve, though single readings scatter. Potencies of inconclusive entries are doubtful fits and often do not repeat.

Experiment: qHTS assay for MDR1-selective chemotherapeutics: Primary screen using the parental adenocarcinoma cell KB-3-1; also: nearly all actives have a fitted effect of over 60% in size
Conditions: KB-3-1 viability, CellTiter-Glo ATP luminescence, 72 h; activity change, negative = cytotoxic: at 46.1 µM (top of the series)
Summary of the method: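 Cytotoxicity in the drug-sensitive parental line KB-3-1 was scored as loss of CellTiter-Glo luminescence following 72 h incubation with compound. Values come from curve fitting of normalized concentration-response data.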
% is scaled to controls: 0 for no effect and ±100 for the full control effect; potency is read from the fitted curve at half-maximal effect.

| Compound | activity change, negative = cytotoxic | Potency |
| --- | --- | --- |
| COc1ccc(NC(=O)NCCCN2CCN(c3ccccc3F)CC2)cc1 | inactive: 2.66% |  |
| CC(NC(=O)c1ccccc1NC(=O)CN1CCN(c2ccccc2O)CC1)c1ccccc1 (stereo not given) | inactive: 3.07% |  |
| O=C(Nc1ccccc1)c1ccc(=O)n(Cc2ccc(F)c(F)c2)c1 |  | inconclusive: 32.6 µM [cytotoxic, single point] |
| CCN(Cc1ccccc1)C(=O)CCS(=O)(=O)c1ccc2c(c1)NC(=O)CO2 | inactive: -0.91% |  |
| Cc1ccc(-n2ncc(-c3n[nH]c(=S)o3)c2N)cc1C | inactive: 3.76% |  |
| COC(=O)[C@H](CC(C)C)NC(=O)NCCC1=CCCCC1 |  | inconclusive: 29.1 µM [rising, single point] |
| Nc1c2c(nc3c1CCCC3)CCCC2 (tested in a mixture with another compound) | inactive: 8.27% |  |
| Cc1ccc([N+](=O)[O-])cc1-c1ccc(/C=N\n2nnnc2N)o1 |  | inconclusive: 5.8 µM [cytotoxic, full curve] |
| CN(C)c1ccc(C(CNC(=O)c2ccc(C(C)(C)C)cc2)N2CCCC2)cc1 (stereo not given) |  | inconclusive: 13 µM [rising, partial curve] |
| COc1ccc(-c2noc(-c3cccs3)n2)cc1OC |  | inconclusive: 2.31 µM [rising, partial curve, poor fit] |
| Cc1cn2c(=O)cc(COc3ccc(NC(=O)c4ccc(C(C)(C)C)cc4)cc3)nc2s1 | inactive: -22.5% |  |
| CCCCC(=O)NC(Nc1cc(C)ccn1)(C(=O)OCC)C(F)(F)F (stereo not given) | inactive: -3.25% |  |
| N=c1n(CCN2CCCCC2)c2ccccc2n1CC(=O)c1cccc([N+](=O)[O-])c1 |  | inconclusive: 18.4 µM [cytotoxic, single point] |
| O=C1Cc2ccccc2C1=C1C=c2ccccc2=C1 |  | inconclusive: 23.1 µM [rising, partial curve, poor fit] |
| COc1cccc(N2CCN(C(=O)c3ccc(CS(=O)c4ccccc4Cl)o3)CC2)c1 (stereo not given) |  | active: 0.0082 µM |
| COc1cc2c(cc1OC)CN(C(=O)/C=C/c1cccs1)CC2 |  | active: 3.66 µM |
| CCC(c1nnnn1Cc1ccco1)N(CCc1ccccc1)Cc1cc2cccc(C)c2[nH]c1=O (stereo not given) |  | inconclusive: 18.4 µM [cytotoxic, single point] |
| O=C(c1cccs1)n1nc(-c2ccc(Cl)cc2)nc1NCc1ccco1 |  | inconclusive: 25.1 µM [cytotoxic, single point] |
| CCOC(=O)C1CCCN(C(=O)c2cccc(N3C(=O)c4ccccc4C3=O)c2)C1 (stereo not given) | inactive: 17.5% |  |
| Cc1cccc(C)c1NC(=O)CCSc1nc(-c2ccc3c(c2)OCO3)cc(C(F)(F)F)n1 |  | inconclusive: 29.1 µM [cytotoxic, single point] |

A different layout for two compounds above:
Compound | activity change, negative = cytotoxic | Potency
COc1cccc(N2CCN(C(=O)c3ccc(CS(=O)c4ccccc4Cl)o3)CC2)c1 (stereo not given) |  | active: 0.0082 µM
COc1cc2c(cc1OC)CN(C(=O)/C=C/c1cccs1)CC2 |  | active: 3.66 µM
